This data set in a line: Tracer dose biodistribution in xenografted PC3 tumor-bearing mice. Particulars: Lu-177 labelled compound, 200 μCi/kg i.v., PC3 tumor-bearing nude mice. The protocol: In all studies, mice were administered 100 μL of ^177Lu-labelled test compound at 200 μCi/kg, i.v., with a residence time of 1 and 24 h per group (n=3-4). Tissues were analyzed in an LKB 1282 CompuGamma counter with appropriate standards.

Results on one compound are retold here after patent US7989417B2, “Linkers for radiopharmaceutical compounds” (Bracco Imaging S.p.A., priority 2003, dated 2011).

As for `CSCC[C@H](NC(=O)[C@H](CC(C)C)NC(=O)[C@H](Cc1cnc[nH]1)NC(=O)CNC(=O)[C@@H](NC(=O)[C@H](C)NC(=O)[C@H](Cc1c[nH]c2ccccc12)NC(=O)[C@H](CCC(N)=O)NC(=O)CCCCCCCNC(=O)CN1CCN(CC(=O)O)CCN(CC(=O)O)CCN(CC(=O)O)CC1)C(C)C)C(N)=O` [Compound L134, DO3A monoatnide-aminooctanyl-BBN[7-14]], the “Kidneys, 1 hr” value (kidneys, 1 h) is on record as 7.65 % ID/g. Further, for the setting “kidneys, 24 h”, the “Kidneys, 24 hr” value turned out to be 1.03 % ID/g. The “Pancreas, 1 hr” value (pancreas, 1 h) is on record as 28.60 % ID/g. The “Pancreas, 24 hr” value (pancreas, 24 h) was 1.01 % ID/g. For the same compound, for the setting “tumor, 1 h”, the “Tumor, 1 hr” value is listed as 3.66 % ID/g. Under “tumor, 24 h”, the “Tumor, 24 hr” value stood at 1.52 % ID/g.
